Patent US10563263B2, “Genetic polymorphisms associated with statin response and cardiovascular diseases, methods of detection and uses thereof” (CELERA CORPORATION, priority 2010, dated 2020)
The source gives many values for each of these; only a part stands here.

System: CHD
Assay: Meta-analysis of CARE and WOSCOPS combined, synergy index, CHD endpoint
Type: in vivo, human
Text: Tables 4-5 provide meta-analyses of CARE and WOSCOPS combined (2nd section of each table) for two endpoints (CHD and CVD) and three genetic models (dominant, recessive, and additive), as well as logistic regression analyses of CARE (3rd section of each table) and WOSCOPS (4th section of each table) individually.
Tables 12 and 17 provide results of meta-analysis of the CARE and WOSCOPS sample sets combined by direct genotyping and by imputing genotypes.
“P” indicates the p-value, and “P(R)” (or “P.R.”) indicates the p-value random effect. Both of these are p-values corresponding to a statistical test of whether the combined synergy index is equal to one but use different assumptions to derive the p-value. “P” is calculated using a fixed effects model, and “P(R)” is calculated using a random effects model.
“OR” indicates the odds ratio (synergy index) calculated from a fixed effects model, and “OR(R)” (or “OR.R.”) indicates the odds ratio (synergy index) calculated from a random effects model.

[1] = SNP rs1868616, allele (A1) G, ADDITIVE, Imputed
[2] = SNP rs1874313, allele (A1) A, DOMINANT, Imputed
[3] = SNP rs1884902, allele (A1) C, RECESSIVE, Imputed
[4] = SNP rs1913201, allele (A1) G, ADDITIVE, Imputed
[5] = SNP rs1913201, allele (A1) G, DOMINANT, Imputed
[6] = SNP rs1913201, allele (A1) G, GENOTYPIC, Imputed
[7] = SNP rs1944279, allele (A1) A, ADDITIVE, Imputed
[8] = SNP rs1987179, allele (A1) T, DOMINANT, Imputed
[9] = SNP rs1990023, allele (A1) T, DOMINANT, Imputed
[10] = SNP rs2016194, allele (A1) G, DOMINANT, Imputed
[11] = SNP rs2024789, allele (A1) C, ADDITIVE, Imputed
[12] = SNP rs2024789, allele (A1) C, GENOTYPIC, Imputed
[13] = SNP rs2024902, allele (A1) A, ADDITIVE, Imputed
[14] = SNP rs2024902, allele (A1) A, DOMINANT, Imputed
[15] = SNP rs2025107, allele (A1) A, ADDITIVE, Imputed
[16] = SNP rs2025107, allele (A1) A, DOMINANT, Imputed
[17] = SNP rs2025108, allele (A1) T, ADDITIVE, Imputed
[18] = SNP rs2025108, allele (A1) T, DOMINANT, Imputed
[19] = SNP rs2062448, allele (A1) T, ADDITIVE, Imputed
[20] = SNP rs2062448, allele (A1) T, DOMINANT, Imputed
[21] = SNP rs2063591, allele (A1) C, ADDITIVE, Imputed
[22] = SNP rs2063591, allele (A1) C, DOMINANT, Imputed
[23] = SNP rs2065604, allele (A1) C, DOMINANT, Imputed
[24] = SNP rs2066238, allele (A1) T, DOMINANT, Imputed
[25] = SNP rs2068051, allele (A1) G, ADDITIVE, Imputed
[26] = SNP rs2068051, allele (A1) G, GENOTYPIC, Imputed
[27] = SNP rs2077702, allele (A1) G, GENOTYPIC, Genotyped
[28] = SNP rs2095586, allele (A1) A, DOMINANT, Imputed
[29] = SNP rs2108426, allele (A1) C, DOMINANT, Imputed
[30] = SNP rs2110664, allele (A1) A, DOMINANT, Imputed
[31] = SNP rs2132242, allele (A1) A, DOMINANT, Imputed
[32] = SNP rs2151644, allele (A1) T, DOMINANT, Imputed
[33] = SNP rs2157752, allele (A1) A, GENOTYPIC, Genotyped
[34] = SNP rs2158958, allele (A1) A, DOMINANT, Imputed
[35] = SNP rs2158961, allele (A1) G, DOMINANT, Imputed
[36] = SNP rs2164099, allele (A1) G, ADDITIVE, Imputed
[37] = SNP rs2173254, allele (A1) G, GENOTYPIC, Imputed
[38] = SNP rs2173254, allele (A1) G, RECESSIVE, Imputed
[39] = SNP rs2188079, allele (A1) C, ADDITIVE, Imputed
[40] = SNP rs2188079, allele (A1) C, GENOTYPIC, Imputed
[41] = SNP rs2190304, allele (A1) G, RECESSIVE, Imputed
[42] = SNP rs2190597, allele (A1) T, DOMINANT, Imputed
[43] = SNP rs2190598, allele (A1) T, DOMINANT, Imputed
[44] = SNP rs2190600, allele (A1) A, DOMINANT, Imputed
[45] = SNP rs16877387, allele (A1) C, GENOTYPIC, Imputed
[46] = SNP rs16877387, allele (A1) C, RECESSIVE, Imputed
[47] = SNP rs16938626, allele (A1) G, DOMINANT, Imputed
[48] = SNP rs16998821, allele (A1) C, DOMINANT, Imputed
[49] = SNP rs17007620, allele (A1) G, ADDITIVE, Imputed

CC[C@H](C)C(=O)O[C@H]1C[C@H](O)C=C2C=C[C@H](C)[C@H](CC[C@@H](O)C[C@@H](O)CC(=O)O)[C@H]21 [Pravastatin, pravastatin]
OR [1]: 0.6201
OR(R) [1]: 0.6201
OR [2]: 0.5922
OR(R) [2]: 0.5922
OR [3]: 2.0651
OR(R) [3]: 2.0651
OR [4]: 0.7177
OR(R) [4]: 0.7177
OR [5]: 0.5843
OR(R) [5]: 0.5843
OR [6]: 0.5555
OR(R) [6]: 0.5555
OR [7]: 1.5292
OR(R) [7]: 1.5292
OR [8]: 0.6885
OR(R) [8]: 0.6885
OR [9]: 0.5675
OR(R) [9]: 0.5675
OR [10]: 0.5753
OR(R) [10]: 0.5753
OR [11]: 0.7001
OR(R) [11]: 0.7001
OR [12]: 0.4935
OR(R) [12]: 0.4935
OR [13]: 2.1731
OR(R) [13]: 2.1731
OR [14]: 2.3955
OR(R) [14]: 2.3955
OR [15]: 2.1211
OR(R) [15]: 2.1211
OR [16]: 2.4108
OR(R) [16]: 2.4108
OR [17]: 2.1211
OR(R) [17]: 2.1211
OR [18]: 2.4108
OR(R) [18]: 2.4108
OR [19]: 0.4975
OR(R) [19]: 0.4975
OR [20]: 0.4776
OR(R) [20]: 0.4776
OR [21]: 0.7439
OR(R) [21]: 0.7439
OR [22]: 0.5704
OR(R) [22]: 0.5704
OR [23]: 0.5093
OR(R) [23]: 0.5093
OR [24]: 0.5711
OR(R) [24]: 0.5711
OR [25]: 0.6225
OR(R) [25]: 0.6225
OR [26]: 0.3895
OR(R) [26]: 0.3895
OR [27]: 1.8705
OR(R) [27]: 1.8705
OR [28]: 1.6153
OR(R) [28]: 1.6079
OR [29]: 0.5744
OR(R) [29]: 0.5744
OR [30]: 1.568
OR(R) [30]: 1.568
OR [31]: 0.6005
OR(R) [31]: 0.6005
OR [32]: 0.5083
OR(R) [32]: 0.5083
OR [33]: 0.4178
OR(R) [33]: 0.4178
OR [34]: 0.5753
OR(R) [34]: 0.5753
OR [35]: 0.5806
OR(R) [35]: 0.5806
OR [36]: 1.51
OR(R) [36]: 1.51
OR [37]: 0.3535
OR(R) [37]: 0.3535
OR [38]: 0.3802
OR(R) [38]: 0.3802
OR [39]: 1.4883
OR(R) [39]: 1.4883
OR [40]: 2.2697
OR(R) [40]: 2.2697
OR [41]: 0.5028
OR(R) [41]: 0.5057
OR [42]: 0.6352
OR(R) [42]: 0.6427
OR [43]: 0.5753
OR(R) [43]: 0.5753
OR [44]: 0.5759
OR(R) [44]: 0.5759
OR [45]: 2.2411
OR(R) [45]: 2.2411
OR [46]: 2.2227
OR(R) [46]: 2.2227
OR [47]: 0.6116
OR(R) [47]: 0.6116
OR [48]: 0.5728
OR(R) [48]: 0.5728
OR [49]: 1.6003
OR(R) [49]: 1.6003
